Test results from US20090226913A1.
No constants are given. Whether binding was seen depends on the method and setting. Binding seen in cells or lysates may run through a third protein. Some results given as binding are weak or reduced against the parent protein; the word gives no strength. Sequences can lack the tags named with a protein.

Target: T1, Dok-2 protein (human) (UniProt O60496)
T1 sequence (chain, phosphotyrosine at residue 299): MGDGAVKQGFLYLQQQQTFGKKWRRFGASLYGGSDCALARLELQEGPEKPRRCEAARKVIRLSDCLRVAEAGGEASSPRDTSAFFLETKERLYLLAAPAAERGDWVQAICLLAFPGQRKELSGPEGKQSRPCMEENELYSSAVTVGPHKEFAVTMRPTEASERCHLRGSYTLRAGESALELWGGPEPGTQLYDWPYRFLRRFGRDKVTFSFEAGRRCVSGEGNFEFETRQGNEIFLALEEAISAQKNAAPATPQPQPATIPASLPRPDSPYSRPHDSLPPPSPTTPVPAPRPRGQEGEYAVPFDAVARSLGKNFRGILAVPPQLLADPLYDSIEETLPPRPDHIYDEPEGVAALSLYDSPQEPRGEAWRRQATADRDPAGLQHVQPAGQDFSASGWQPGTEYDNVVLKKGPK
Experiment: GST pull-down from NP40 lysate of CML cells; SDS-PAGE, Dok-2 band excised and identified by MALDI-TOF

B1: GST fusion of the SH2 domain of SHIP1 (protein, UniProt Q92835 5-101, looked up, not shown: a dimerising Fc or GST)
chain: WNHGNITRSKAEELLSRTGKDGSFLVRASESISRAYALCVLYRNCVYTYRILPNEDDKFTVQASEGVSMRFFTKLDQLIEFYKKENMGLVTHLQYPV
  binding: binds
